Measurements reported in patent publication US20230399416A1 (MIRIMGENE, published 2023).
Results are given in words; binding and its absence hold for the method and conditions named. Some results given as binding are weak or reduced against the parent protein; the word gives no strength.

What was measured:
[1] = molecular target: T1, WARS1 (SEQ ID NO 26) (Homo sapiens (Human)) (UniProt P23381); test: summary of the examples (SPR, ELISA, immunoblot)
T1 sequence: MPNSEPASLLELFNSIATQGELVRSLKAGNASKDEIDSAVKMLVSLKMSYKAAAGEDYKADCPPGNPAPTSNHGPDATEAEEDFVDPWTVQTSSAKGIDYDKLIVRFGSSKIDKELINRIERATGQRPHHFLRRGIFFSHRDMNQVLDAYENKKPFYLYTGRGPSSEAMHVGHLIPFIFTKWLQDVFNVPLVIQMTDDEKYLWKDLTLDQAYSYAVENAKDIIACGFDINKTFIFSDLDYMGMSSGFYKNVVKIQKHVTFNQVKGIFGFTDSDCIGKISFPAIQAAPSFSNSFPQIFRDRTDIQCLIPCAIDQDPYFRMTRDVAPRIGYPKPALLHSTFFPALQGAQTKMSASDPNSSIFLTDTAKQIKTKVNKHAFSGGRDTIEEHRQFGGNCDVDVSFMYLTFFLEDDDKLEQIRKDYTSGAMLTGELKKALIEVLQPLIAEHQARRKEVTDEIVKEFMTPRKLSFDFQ

[2] = molecular target: T2, human WARS1 recombinant protein (human, UniProt P23381 1-471, limits assumed); test: sandwich ELISA (GKB101 coated, recombinant WARS1 titrated) and SPR
T2 construct: In the immunoblot the endogenous WARS1 of THP-1 human monocytes was also detected; also called human recombinant protein; tryptophanyl-tRNA synthetase 1, cytoplasmic
T2 sequence (looked up): T1 sequence

[3] = molecular target: T2, human WARS1 recombinant protein; test: immunoblot, LPS-stimulated THP-1 human monocytes and human recombinant WARS1, 1 µg/mL GKB101
[4] = molecular target: T3, mouse WARS1 recombinant protein (mouse, UniProt P32921 1-481, limits assumed); test: immunoblot, LPS-stimulated J774.1A mouse macrophages and mouse recombinant WARS1, 1 µg/mL GKB101
T3 construct: In the immunoblot the endogenous WARS1 of J774.1A mouse macrophages was also detected; also called mouse recombinant protein
T3 sequence (looked up): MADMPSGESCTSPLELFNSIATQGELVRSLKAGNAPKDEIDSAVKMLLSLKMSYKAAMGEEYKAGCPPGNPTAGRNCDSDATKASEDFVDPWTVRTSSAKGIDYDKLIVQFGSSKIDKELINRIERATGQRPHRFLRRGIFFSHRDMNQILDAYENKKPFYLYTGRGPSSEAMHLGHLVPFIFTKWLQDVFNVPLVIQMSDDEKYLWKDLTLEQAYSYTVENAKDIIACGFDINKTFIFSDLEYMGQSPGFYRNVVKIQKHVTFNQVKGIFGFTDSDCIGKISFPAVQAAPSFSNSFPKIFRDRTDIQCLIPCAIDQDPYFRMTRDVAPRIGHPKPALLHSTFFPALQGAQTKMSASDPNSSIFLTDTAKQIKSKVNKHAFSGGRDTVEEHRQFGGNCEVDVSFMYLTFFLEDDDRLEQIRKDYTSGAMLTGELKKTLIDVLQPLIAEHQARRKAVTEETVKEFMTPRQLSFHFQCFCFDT

Measured: binding

B1: GKB101 (antibody, IgG1, V domains shown)
VH: EVQLLESGGGLVQPGGSLRLSCAASGFTFSSYDMSWVRQAPGKGLEWVSAISSGGSSIYYADSVKGRFTISRDNSKNTLYLQMNSLRAEDTAVYYCARDVAWDMLGDFDYWGQGTLVTVSS
VL: QSVLTQPPSASGTPGQRVTISCTGSSSNIGSNYVYWYQQLPGTAPKLLIYANSHRPSGVPDRFSGSKSGTSASLAISGLRSEDEADYYCGAWDDSLSAYVFGGGTKLTVTV
notes: IgG1 made from the selected scFv with the constant regions of herceptin expression vectors, expressed in Expi293F cells; Joined as printed they may lack a few residues at the junctions (VL/CL, CH2/CH3) and at the C-terminus of CH3; also called WARS1-specific antibody; anti-WARS1 antibody
binds: all assays above
